Experiment [1] concerns the target YY1 (mouse) (UniProt Q00899). In words: co-IP; HEK293T transfected with Smad3-, Smad4- or Foxp3-expression vector together with FLAG-tagged YY1 or YY1 domain mutants; lysates immunoprecipitated with anti-FLAG; immunoblot with anti-Smad3, anti-Smad4, anti-Foxp3 or anti-FLAG.
Experiment [2] deals with YY1 (mouse) (UniProt Q00899). In words: co-IP; HEK293T transfected with expression vectors; lysates pre-cleared with control IgG and protein A/G, incubated overnight at 4 °C with anti-Smad3, anti-Smad4, anti-Foxp3, anti-YY1 or control IgG, then protein A/G beads; immunoblot. For orientation: A western blot detects proteins with antibodies after separation by electrophoresis.

By UniProt entry, the sequences of proteins in these tests, tags left out.
UniProt Q00899: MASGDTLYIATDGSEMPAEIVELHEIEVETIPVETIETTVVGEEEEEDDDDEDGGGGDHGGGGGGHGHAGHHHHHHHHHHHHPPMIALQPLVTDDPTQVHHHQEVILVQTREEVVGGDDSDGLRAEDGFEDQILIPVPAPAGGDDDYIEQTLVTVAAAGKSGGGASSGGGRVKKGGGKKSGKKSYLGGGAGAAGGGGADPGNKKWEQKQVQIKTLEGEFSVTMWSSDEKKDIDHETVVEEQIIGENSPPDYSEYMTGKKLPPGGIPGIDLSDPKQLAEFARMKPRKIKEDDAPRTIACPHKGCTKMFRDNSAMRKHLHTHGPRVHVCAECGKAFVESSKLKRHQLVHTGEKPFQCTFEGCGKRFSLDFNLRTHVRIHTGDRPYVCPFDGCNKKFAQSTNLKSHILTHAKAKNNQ
UniProt Q62432: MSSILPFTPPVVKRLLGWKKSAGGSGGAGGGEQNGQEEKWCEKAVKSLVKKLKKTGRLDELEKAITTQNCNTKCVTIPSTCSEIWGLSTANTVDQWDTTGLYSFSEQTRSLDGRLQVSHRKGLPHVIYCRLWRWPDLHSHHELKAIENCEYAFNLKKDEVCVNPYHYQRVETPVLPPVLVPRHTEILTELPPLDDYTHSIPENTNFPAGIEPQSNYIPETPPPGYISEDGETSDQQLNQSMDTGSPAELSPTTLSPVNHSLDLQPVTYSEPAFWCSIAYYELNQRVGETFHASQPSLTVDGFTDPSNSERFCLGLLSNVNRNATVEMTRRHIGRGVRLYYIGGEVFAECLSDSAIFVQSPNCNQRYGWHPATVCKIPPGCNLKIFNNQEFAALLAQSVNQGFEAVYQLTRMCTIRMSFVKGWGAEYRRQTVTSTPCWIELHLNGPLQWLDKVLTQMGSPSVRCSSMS
UniProt P97471: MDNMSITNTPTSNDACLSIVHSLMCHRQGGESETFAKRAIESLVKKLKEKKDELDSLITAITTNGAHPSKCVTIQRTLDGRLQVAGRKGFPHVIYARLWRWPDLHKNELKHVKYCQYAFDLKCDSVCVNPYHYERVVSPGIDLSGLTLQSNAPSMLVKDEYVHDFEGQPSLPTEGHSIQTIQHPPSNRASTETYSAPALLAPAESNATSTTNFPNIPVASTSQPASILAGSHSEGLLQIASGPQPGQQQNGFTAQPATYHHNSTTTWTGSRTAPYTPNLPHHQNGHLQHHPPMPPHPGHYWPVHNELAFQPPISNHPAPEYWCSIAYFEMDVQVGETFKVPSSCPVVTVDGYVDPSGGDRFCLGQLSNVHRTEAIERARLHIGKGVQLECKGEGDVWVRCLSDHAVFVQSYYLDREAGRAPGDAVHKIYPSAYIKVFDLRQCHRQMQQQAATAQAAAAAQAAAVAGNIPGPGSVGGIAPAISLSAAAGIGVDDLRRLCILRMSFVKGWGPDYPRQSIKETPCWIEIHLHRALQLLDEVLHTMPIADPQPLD
UniProt Q8BUN5: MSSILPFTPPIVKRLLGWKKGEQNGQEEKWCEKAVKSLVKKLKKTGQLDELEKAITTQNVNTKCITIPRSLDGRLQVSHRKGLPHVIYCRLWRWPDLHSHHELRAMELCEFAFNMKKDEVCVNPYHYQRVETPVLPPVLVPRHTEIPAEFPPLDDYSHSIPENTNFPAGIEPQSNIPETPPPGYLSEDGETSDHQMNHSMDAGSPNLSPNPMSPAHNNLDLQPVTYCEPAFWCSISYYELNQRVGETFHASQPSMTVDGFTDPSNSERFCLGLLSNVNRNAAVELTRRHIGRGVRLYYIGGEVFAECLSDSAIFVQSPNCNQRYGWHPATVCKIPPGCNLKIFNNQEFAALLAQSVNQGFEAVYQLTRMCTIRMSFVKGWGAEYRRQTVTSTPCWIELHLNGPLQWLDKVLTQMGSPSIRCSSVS

No constants are given. Whether binding was seen depends on the method and setting. Binding seen in cells or lysates may run through a third protein. Some entries that bind do so weakly or less than the wild type.

Smad2 (from UniProt Q62432 1-467): the binding result in experiment [1] is given as “binds”.
For Smad4 (from UniProt P97471 1-551), the binding entry in experiment [1] was “binds”.
Take Smad3 (from UniProt Q8BUN5 1-425): the binding result in experiment [1] is reported as “binds”.

B1: Foxp3 (protein, UniProt Q99JB6 1-417)
chain: MPNPRPAKPMAPSLALGPSPGVLPSWKTAPKGSELLGTRGSGGPFQGRDLRSGAHTSSSLNPLPPSQLQLPTVPLVMVAPSGARLGPSPHLQALLQDRPHFMHQLSTVDAHAQTPVLQVRPLDNPAMISLPPPSAATGVFSLKARPGLPPGINVASLEWVSREPALLCTFPRSGTPRKDSNLLAAPQGSYPLLANGVCKWPGCEKVFEEPEEFLKHCQADHLLDEKGKAQCLLQREVVQSLEQQLELEKEKLGAMQAHLAGKMALAKAPSVASMDKSSCCIVATSTQGSVLPAWSAPREAPDGGLFAVRRHLWGSHGNSSFPEFFHNMDYFKYHNMRPPFTYATLIRWAILEAPERQRTLNEIYHWFTRMFAYFRNHPATWKNAIRHNLSLHKCFVRVESEKGAVWTVDEFEFRKKR
Regarding B1, the binding entry in experiment [1] and in experiment [2] was “binds” each time.
